# Results: PubChem BioAssay AID1347076 (National Center for Advancing Translational Sciences (NCATS), 2019)
# The campaign covered roughly 400,000 compounds. About 13,000 (3.2%) were called active. This list was built around the results that the source calls inconclusive (neither active nor inactive); the mix of calls is not that of the screen. Calls come from the whole dose curve; as a rule, active = well fitted cell-killing curve with a large enough effect; inconclusive = small, poorly fitted or top-dose-only effect, or effect the other way; inactive = flat fitted curve, though single readings scatter. A potency beside an inconclusive call is a rough fit, not a confirmed value.
# Experiment: qHTS assay for MDR1-selective chemotherapeutics: Primary screen using the drug-selected MDR subline cells KB-V1; note: nearly all actives have a fitted effect of over 60% in size
# Conditions: KB-V1 MDR cells viability, CellTiter-Glo, 72 h; activity change, negative = cytotoxicity: at 46.1 µM (top of the series)
# Summary of the method: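 Luminescent ATP read-out (CellTiter-Glo, 10 min) measures survival of drug-selected KB-V1 MDR cells after 72 h, 37 degrees C compound exposure. Medium: phenol-red-free DMEM, 10% FBS. Values from fitted concentration-response curves.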
# % is set by controls: 0 for no effect and ±100 for the full control effect; potency is the fitted concentration of half-maximal effect.
SMILES,Potency,"activity change, negative = cytotoxicity"
CC(Oc1ccc(Br)cc1)C(=O)O/N=C(\N)c1ccncc1 (stereo not given),"inconclusive: 18.4 µM [cytotoxic, single point]",–
O=C(CCN1C(=O)/C(=C\c2cccs2)SC1=S)Nc1ccccn1,"inconclusive: 25.9 µM [rising, single point]",–
COC(=O)COc1nc(C)c2c(c1C#N)CC(C)(C)OC2,"inconclusive: 10.3 µM [cytotoxic, partial curve, poor fit]",–
CNC(=S)Nc1cc(Cl)ccc1Oc1ccccc1,–,inactive: -21.3%
CC(C)(C)NC(=O)c1cnn2c1NC(c1ccc(F)cc1)CC2C(F)(F)F (stereo not given),"inconclusive: 0.206 µM [cytotoxic, full curve]",–
COc1ccc(C(=O)c2nccc3ccccc23)cc1,–,inactive: -19.6%
COc1nc(C)ccc1-c1noc(-c2cccnc2)n1,–,inactive: -8.21%
CC(O)CNc1nc2c(c(=O)n(C)c(=O)n2C)n1Cc1cccc(C(F)(F)F)c1 (stereo not given),–,inactive: 0%
COc1ccc(C2C=C(c3ccc(Cl)cc3)Nc3nc(-c4ccc(Cl)cc4)nn32)cc1 (stereo not given),"inconclusive: 23.1 µM [cytotoxic, single point]",–
COCC(C)NS(=O)(=O)c1ccccc1 (stereo not given),"inconclusive: 4.11 µM [rising, full curve, poor fit]",–
O=C(CS(=O)c1ccc(F)cc1)Nc1ccccc1Cl (stereo not given),"inconclusive: 16.4 µM [rising, single point]",–
COc1ccc(C(CNC(=O)COc2ccc(F)cc2Cl)N2CCCCC2)cc1 (stereo not given),–,inactive: -15.6%
CCC(C(=O)NCCCc1ccccc1)n1nc(C)c2c(C)n(-c3ccccc3)nc2c1=O (stereo not given),"inconclusive: 0.58 µM [cytotoxic, full curve, poor fit]",–
CCOC(=O)C1(Cc2cccc(OC)c2)CCN(Cc2cccc(OC)c2OC)CC1,"inconclusive: 3.66 µM [cytotoxic, full curve]",–
COc1ccc(-c2ccc(/C=C(\NC(=O)c3ccccc3)C(=O)N3CCOCC3)o2)cc1,"inconclusive: 2.06 µM [cytotoxic, full curve]",–
Cc1cc(S(=O)(=O)NC(C)c2nnc3ccccn23)ccc1Br (stereo not given),"inconclusive: 25.9 µM [cytotoxic, single point]",–
COc1ccccc1-c1cnc(C(O)c2ccc(CN3CCCCC3)cc2)[nH]1 (stereo not given),–,inactive: 15.4%
Cn1c(CN2CCN(c3ccccc3NS(C)(=O)=O)CC2)nc2ccccc21,"inconclusive: 20.6 µM [cytotoxic, partial curve]",–
CCOC(=O)c1c(C)[nH]c(C)c1C(=O)CSc1nc2ccccc2[nH]1,active: 23.1 µM,–
O=C(NCCN1CCOCC1)c1ccc2c(c1)N(Cc1ccccc1)C(=O)CS2,"inconclusive: 16.4 µM [cytotoxic, partial curve]",–
COCc1c(C(=O)OCC(=O)N2CCCC2=O)oc2ccccc12,"inconclusive: 25.9 µM [rising, single point]",–
O=C(CN1c2ccccc2Sc2ccccc21)N/N=C/c1ccccc1,"inconclusive: 23.1 µM [cytotoxic, single point]",–
Cc1ccc2nc(SCC(=O)Nc3ccc4sc(C)nc4c3)c(C#N)cc2c1,"inconclusive: 11.6 µM [cytotoxic, partial curve]",–
O=C(CN1CCC(c2nc3ccccc3[nH]2)CC1)NCc1ccc2c(c1)OCO2,"inconclusive: 16.4 µM [rising, partial curve, poor fit]",–

# 4 entries picked at random from the list so far, as already listed:
SMILES,Potency,"activity change, negative = cytotoxicity"
CCOC(=O)C1(Cc2cccc(OC)c2)CCN(Cc2cccc(OC)c2OC)CC1,"inconclusive: 3.66 µM [cytotoxic, full curve]",–
CC(C)(C)NC(=O)c1cnn2c1NC(c1ccc(F)cc1)CC2C(F)(F)F (stereo not given),"inconclusive: 0.206 µM [cytotoxic, full curve]",–
COc1ccccc1-c1cnc(C(O)c2ccc(CN3CCCCC3)cc2)[nH]1 (stereo not given),–,inactive: 15.4%
COc1nc(C)ccc1-c1noc(-c2cccnc2)n1,–,inactive: -8.21%

# (further entries)

SMILES,Potency,"activity change, negative = cytotoxicity"
Cc1ccc(NS(=O)(=O)c2ccc3c(c2)oc(=O)n3C)c(C)c1,–,inactive: -3.35%
COc1ccc(N(C)C2=NS(=O)(=O)c3ccccc32)cc1,–,inactive: -13.4%
c1ccc(-c2nc(NCc3ccco3)c3ccccc3n2)cc1,active: 23.1 µM,–
CCSc1nsc(NC(=O)Nc2cccc(OC)c2)n1,"inconclusive: 29.1 µM [cytotoxic, single point]",–
O=C(COC(=O)CNC(=O)c1ccc2c(c1)OCO2)Nc1ncc(Cl)cc1Cl,"inconclusive: 5.8 µM [rising, partial curve, poor fit]",–
COc1ccc([N+](=O)[O-])cc1NC(=O)CSc1ccc2ccccc2c1,"inconclusive: 11.6 µM [cytotoxic, partial curve]",–
O=C(Nc1ccc(-c2nc3ccccc3o2)cc1)c1ccc(N2C(=O)C3C4C=CC(C4)C3C2=O)cc1 (stereo not given),active: 4.11 µM,–
CN(C)c1ccc(Nc2nc(N)c3ccccc3n2)cc1,"inconclusive: 29.1 µM [cytotoxic, single point]",–
CCNc1nc(OC)nc(N2CCC(Cc3ccccc3)CC2)n1,"inconclusive: 18.4 µM [cytotoxic, single point]",–
N#C/C(=C\c1ccc(-c2ccccc2[N+](=O)[O-])o1)C(=O)N1CCOCC1,"inconclusive: 0.651 µM [cytotoxic, full curve, poor fit]",–
O=C(CSc1ccc(-c2cccnc2)nn1)Nc1ccccc1C(F)(F)F,"inconclusive: 23.1 µM [cytotoxic, single point]",–
Cc1c(CCOC(=O)c2ccccc2)sc[n+]1Cc1ccccc1,–,inactive: 11.4%
CCCC1=NN2C(=N)/C(=C\c3cc(C)n(-c4cccc(C)c4)c3C)C(=O)N=C2S1,–,inactive: 6.64%
CCOc1ccc(NC(=O)CN(C)C(=O)Cn2c(=O)oc3ccccc32)cc1OCC,"inconclusive: 0.82 µM [rising, full curve]",–
O=C(Nc1ccc(F)cc1)C1CCC(N2C(=O)c3ccccc3C2=O)CC1 (stereo not given),"inconclusive: 8.2 µM [cytotoxic, partial curve]",–
CCC(=O)c1ccc(OCC(O)CN2CCN(c3cccc(C(F)(F)F)c3)CC2)cc1 (stereo not given),"inconclusive: 11.6 µM [cytotoxic, partial curve, poor fit]",–
O=C(Nc1cccn(Cc2ccccc2)c1=O)NC1CCCCC1,active: 4.11 µM,–
COCCNc1c(-c2cc3ccc(C)c(C)c3[nH]c2=O)nc2ccccn12,"inconclusive: 5.17 µM [cytotoxic, full curve]",–
C=C(C)C(=O)Nc1cccc(C2=NOC3(C2)C[C@@H](C(N)=O)N(C(=O)c2ccc(Cl)cc2)C3)c1 (stereo not given in full),"inconclusive: 29.1 µM [cytotoxic, single point]",–
CC1C(=O)C(C)C(c2ccc([N+](=O)[O-])cc2)NC1c1ccc([N+](=O)[O-])cc1 (stereo not given),"inconclusive: 11.6 µM [cytotoxic, partial curve]",–
CC1=C(C(=O)OCc2ccc3c(c2)OCO3)C(c2ccc(F)cc2)NC(=O)N1 (stereo not given),active: 8.2 µM,–
CCCCCCSc1ccc(-c2nc3ccc(C)cn3c2NC2CCCCC2)cc1,"inconclusive: 29.1 µM [cytotoxic, single point]",–
CC1(C)Cc2c(sc3nnn(Cc4ccc(Cl)cc4)c(=O)c23)CO1,active: 6.51 µM,–
CC1=N/C(=C\c2ccccc2Cl)C(=O)O1,"inconclusive: 29.1 µM [cytotoxic, single point]",–

SMILES,Potency,"activity change, negative = cytotoxicity"
O=S(=O)(c1ccccc1)N1CCC(n2nnc3cc(F)ccc32)CC1,"inconclusive: 16.4 µM [cytotoxic, partial curve]",–
COc1ccc(C(CCNCc2ccc(OC(C)C)cc2)c2ccccc2OC)cc1 (stereo not given),active: 23.1 µM,–
Oc1c(Br)cc(Br)cc1CNc1ccccn1,"inconclusive: 18.4 µM [rising, single point]",–
CCOC(=O)C1CCCN1C(=O)C1(NC(C)=O)CCCC1 (stereo not given),–,inactive: -0.617%
CC1(C)CC(=O)C2=C(C1)Nc1cc(C(=O)c3ccccc3)ccc1NC2c1ccccn1 (stereo not given),active: 20.6 µM,–
Cc1cc(C)cc(OCCCn2c(-c3ccc(Cl)cc3)nc3ccccc3c2=O)c1,–,inactive: 18.4%
Oc1c(CN2CCCCC2)ccc2cccnc12,"inconclusive: 11.6 µM [cytotoxic, partial curve, poor fit]",–
COc1cc(C23CCCN(CCC(C(C)(C)C)C2)C32OCCO2)cc(OC)c1OC (stereo not given),–,inactive: 5.86%
CCN(CC)c1ccc(C(=O)NNC(=O)CCNC(=O)c2ccccc2)cc1,–,inactive: 13.7%
Cc1ccc(C2CC(=O)C=C(Nc3ccc(Cl)cc3)C2)cc1 (stereo not given),"inconclusive: 16.4 µM [cytotoxic, single point]",–
CC[C@]12c3[nH]c4cc(CCC(=O)N(C)C)ccc4c3CCN1C(=O)[C@@H](CC(=O)NCCCn1ccnc1)C[C@@H]2C(=O)N1CCN(C(=O)c2ccco2)CC1,–,inactive: 24.8%
O=C(COc1ccc(/C=N/NC(=O)c2cc3ccccc3o2)cc1Br)Nc1ccccc1,"inconclusive: 18.4 µM [cytotoxic, partial curve, poor fit]",–
COc1ccc(Cc2nn3c(-c4cc(OC)c(OC)c(OC)c4)nnc3s2)cc1,"inconclusive: 16.4 µM [cytotoxic, partial curve, poor fit]",–
NS(=O)(=O)c1ccc(N2N=C(c3ccccc3)CC2c2cccc(Br)c2)cc1 (stereo not given),"inconclusive: 0.461 µM [cytotoxic, full curve, poor fit]",–
COC(=O)c1sc(-c2ccccc2)cc1NC(=O)Nc1ccc(F)cc1,–,inactive: -2.29%
Cc1nnsc1SCCNC(=O)c1c(F)cccc1F,"inconclusive: 29.1 µM [cytotoxic, single point]",–
CN1C(=O)c2ccccc2N(C)C1c1ccccc1Cl (stereo not given),"inconclusive: 29.1 µM [cytotoxic, single point]",–
CC1=C(C(=O)Nc2cc(C)ccn2)C(c2ccc(C)cc2)C2=C(CCCC2=O)N1 (stereo not given),–,inactive: 10%
Cc1ccc(OCC(=O)Nc2ccc(S(=O)(=O)Nc3cc(C)on3)cc2)c(Br)c1,–,inactive: 13.9%
O=C(/C=C/c1ccccc1)Nc1ccc(Cl)cn1,"inconclusive: 2.91 µM [cytotoxic, full curve]",–
CCc1ccc(C(=O)C(C)OC(=O)CNS(=O)(=O)c2ccc(C)cc2)cc1 (stereo not given),–,inactive: 19.2%
COC(=O)Cn1c(=O)c2c(n(Cc3ccccc3)c1=O)N/C(=C/c1ccc(OC)cc1)C2=O,–,inactive: 10.2%
